{"source": "paper PMC8964110", "molecular_target": "EhVps23 (E. histolytica (endogenous in HM1:IMSS trophozoites))", "assay": "affinity purification with mass spectrometry; immunoprecipitation with α-EhVps23 antibody and protein G-agarose from trophozoite lysates (10 mM Tris-HCl, 50 mM NaCl, protease inhibitors, freeze-thawing; pre-cleared with Protein-G, 2 h at 4°C); precipitate separated by gel electrophoresis, LC-ESI-HDMSE", "note": "No constants are given. Whether binding was seen depends on the method and setting. In cells and extracts the contact can be indirect. Here binding means that the protein was enriched with, or labelled near, the bait; the list need not be complete.", "data": [{"binder": "Rho GDP exchange inhibitor (protein, UniProt C4M6L6 1-175) MSAADIVKNEKDPSLVAYLKSLGIDPDYVPPKDDPRRVVISEFAVLFKEHDPVILKLNTEEDMEKAKKTPIIIKEGAEFKMRVTFRVQHQPVLGLRILNTVSKLGKQVASDEEMLGSYPPKNEFNALELPKNDWNEAPTGMLARGEYKSNVKFYDDDKVTHLQFDYLIKIAKDWD", "values": [{"measurement": "binding", "result": "binds"}]}, {"binder": "EhRabC1 (protein, UniProt A0A8U0WNZ6 1-204) MAAKAHYDHLFKILIIGESGVGKTAIMQRLCEDTYDNVYISTVGVDFKPKILNIRNKTVKMQIWDTAGQERFRNITASYYRNAQGVIIVYDVNDIGTLEKVDSWFNEVKERTGANPPVVFLVGNKSDSPNPTVSKEMVKNVVNNLGGIPDYNCSAKEGTGVNEIFNALAEAMMDKSNQGGNGSTKPNELTNLTDKPKDNGKGCC", "values": [{"measurement": "binding", "result": "binds"}]}, {"binder": "EhVps45A (protein, UniProt A0A8U0WPJ0 1-529) MNVIHALQEYLNFTFSETPGMKALIMDSDTIPVVSILFGMTEIIQKEVYLVQQLSDQTRDTLPHLNAICLLRPTKENMELLRKELNNPKYGKYYLFFTNFLDSTQISLLSQSDVHEVVQKVMELYVDYMPVNDDLFISSCPNYYSVNGPNSMKNEQKTIDSLMALCLSLKKNPAIRYQQNSELSKRIAEGLTQGLERQKKIFGPMNGTTLLILDRSFDPITPLLTQWTYQAMIHEFIGIENGKIILDNKPIILSNDSFFNEHMYLLFSDITDSIIASVNELTKKAGVASKQYRSLEEMKETIEQIPQLKKESAGVKKHLGIMNVINKTVSRRKMLDVSRLEQDIVCGSGRQELYQNVIQFFEGDYEVEDKLRVGLLYALKYEDKAQDIIEELTIKGIPKDRIQLIDIVLRYAGSSKRPIEIFNKVKSIVGFVKKSVAGVENVFVQHKPVLEQLYDPLINQQLLEKFPFCRGSSANGREFIIYIVGGVTLEEEVSIATRNRTNPTQKFIIGGSDLLNSSKFIEQLETMKK", "values": [{"measurement": "binding", "result": "binds"}]}, {"binder": "Rab family GTPase (EHI_164900) (protein, UniProt C4M1Y3 1-264) MSDTKETVPTNNEEKLDIEPKKDIKEEVKPEEEHKEEEHKEEKPEEVKPEEVKPEEVKPEEVKPEEEKKNESNEQQKVKVIMVGESSVGKTCCMNRYVSNEFAEQTKATIGVGVGSKEVEVEGKHIKLQIWDTAGQERFATLTGNYFRNAMAAIIMFDVSNKESFENIPNWVEQCCKSDGKHIIFIAGNKIDLENRVVSKEEAEEKAKELKLKYFEVSAKTGDGIEDLFNELIKEIMKTPFCNEQEKEGVELDGQKKQKKGGCC", "values": [{"measurement": "binding", "result": "binds"}]}, {"binder": "Rab GDP dissociation inhibitor alpha (protein, UniProt B1N309 1-439) MDDTYDTIVLGTGLKECILSGLLSVDGKKVFHLDKNDYYGGASASLNLKQLFDTFANGKPAPESLGRPRDYNIDIIPKFIMSSGEMVNLLLHCNVHNYLQFRAIHGSYVFTKGKVYKIPATVAETVSTPLLGFFEKNRFKNFLTYLQNYDENKPETHKGRNLKTMTMAQLFKDFSLDDATIEFVGHTIALYREDSYLTRPAIETVKKIVLYFESLSRFQKSPYIYPEYGLGELPQAFARMSALYGGTYMLRAKIQEIVFENGRVAGVKFESGEVAKCSNIIADPSYFPDKVKKVGQVIRAICILNHPVANTDNAESCQIIMPQKQVGRKSDIYISVLSGNNQVCPKGKYIAIVGTTVETSNPEKEVEVGLKLLQPIEQQFISITDSFEPINDPKQDGVYITKSYDATSHFETTVEDCLEMYTTITGKKLEMKGPNETSQ", "values": [{"measurement": "binding", "result": "binds"}]}, {"binder": "EhRabX11 (protein, UniProt A0A8U0WPU0 1-209) MEESKEALQLKIIVIGEPSVGKTSTIRKYCHGVFDQLYRATIGVDFAVKFTTVDERDVELRLWDIAGQEKYIAMTRVYYNGAHGAIIMYDLTNPDTFAATDRWKEDLENKVKFNEQSIPALLVGNKADCLSEEELKKAQEDLMAKVAEQKYSDGILTSAKSGLAVEEAMAKITRLIFKQFSDLVNPKPDANNVDISKQGQQTQKEGGCC", "values": [{"measurement": "binding", "result": "binds"}]}, {"binder": "GTP-binding protein (SAR1) (protein, UniProt C4M4L8 1-190) MWIWEWFWNLLADLGLAYKTGKMLFLGLDNAGKTTLLHLLKDGKVSQHIPTQQPTMEELVMGNIKFNTYDLGGHTPARKVWKTYCTEVDAVIYIVDCAAPERFGESKKELDSLLNDEMLQNTPFLILGNKIDIPGAVSEAQLREAMGLTHTTGKGNVTCEGIRPIEVFMSSIVNRQGYPEGFKWISQYMK", "values": [{"measurement": "binding", "result": "binds"}]}, {"binder": "Uncharacterized protein (EHI_016130) (protein, UniProt C4MAN6 1-510) MSNKQTDIKTKDEVVQIERCTTETYQLMKKIIPNYKKLADACEGYFKAQLVMIKATDTLYNCLEAMADTSLEEGGQQTHPDLQVGVKNMSNVLKMWKENLMSVCDEFRSTCSCIRGDVTTFPKEIEAKEKEYKSQKKKEVDEVSKVEKKLSSVSKNTKLQAKDPKALADAITAVTKKESEYQHFLMNGLKDSLSMFRGTYGQLFECFRKLFICKTDTDNKSQLIISANMEDMQKLIKTSKGLPQKYRSLVTMKKQSMINTTWLSPELKEILKAAGVKPKHLADPTIVETLIQTVKQAVQQGTVPKDLLDQLEASRANKEDKLSKVIEVEDIVVPDRRPPPTPIARSSPRTAAPTTPAVATAPVPAAPADIPPPPPPTAPMMDNIPPPPPVAPAIGNPPPPPPIAPPKQAGNPPPPPPIRSTNSAGNPPPPPPARQTAAPAPANGNLLADIRSGITLRSAADRKLDTAAPVVSDAGKQDLTSMLRKAMEVRRNDIADDEDDDDDDDDEWSD", "values": [{"measurement": "binding", "result": "binds"}]}, {"binder": "Uncharacterized protein (EHI_069560) (protein, UniProt C4LWP4 1-207) MIFLLLPLLVFSQECVLRDINYSKLTKPKNDPYLLSYPAYTFHFNICGPVDDNGNVAVAIADDVTYSLGKYSTQEPFTDNNGNGFKYAGGSKSRSGNLWSSSIYIKCDNTVTKDIIQVSTADFDKATVSFEIRGPSACVVEESKKSLSPVAIIFIIIAVIVCVILIVFGSWCLVNFFIGKRGIAVLPLYSIFHKQQDAFATEKANLI", "values": [{"measurement": "binding", "result": "binds"}]}, {"binder": "EhUbI1 (protein, UniProt C4M760 1-77) MQIFVKTLTGKTITLEVEPNDSIDAIKAKIQEKEGIPPDQQRLIFAGKQLEEGKTLSDYNIQKESTLHLVLRLRGGY", "values": [{"measurement": "binding", "result": "binds"}]}, {"binder": "LIM zinc finger domain containing protein (protein, UniProt C4LWF5 1-145) MSAKKCFACGKSAYPLERITAGGKDYHNACFKCKECGLHLTLKNFFFDQGTQAVYCKNHVPKATATAVTDSIAIKQALNAPKKEAENIGTVQKGAGGKPHSVVFGDSSERREEAAPTEQPQEEVHEEVHEEEVHEEEVHEEEEGF", "values": [{"measurement": "binding", "result": "binds"}]}, {"binder": "p21-activated kinase (protein, UniProt A0A8U0WPI5 1-467) MKSWKRKWVRLTKTDVYVFDSPTKNTPILTIPLQRTVVSLVASMGDSYLKLDSKKLGKQFIFNAPCKDQAERWVTAINNTIDAGLTRPSGMTQVVHVDFDPNLGYIGLPPEWERFLNEGGITTDEYKKNKDVVDDVLNFQIQRQGDKTNLPSVPAPISQPKQSKAVVEPLPEDVEKVQLKDVTIEQDPREFYSDFEKIGEGASGEVFSAKRKADGIVVALKQMEVNNDNEKLIATEISLMKGCKHDNVVTFYEAFYLPAKKLMWMSMEYMDGGCLTDILENHDIIEMTEPQIAYVCRETLRALNFIHGLHCIHRDIKSDNMLLTNDGHVKLADFGYAAQLNQKQKNRNTVVGTPYWMAPELIRGHDYGVKIDIWSLGIMVMEMAEGDPPYMEFPPLRALFLITTKGIPPLKNAEKWSRDMNGFVARCLETIPDNRADSEELLQHPFMKIACENTDFAQLIADVRKLA", "values": [{"measurement": "binding", "result": "binds"}]}, {"binder": "Pyruvate, phosphate dikinase (protein, UniProt P37213 1-885) MQRVYAFEDGDGTNKKLLGGKGAGLCTMTKIGLPVPQGFVITTEMCKQFIANGNKMPEGLMEEVKKNMQLVEKKSGKVFGGEENPLLVSVRSGAAMSMPGMMDTILNLGLNDKTVVALAKLTNNERFAYDSYRRFVSLFGKIALNVDDEVYDKTLENKKVEKGVKLDTELDANDMKELAQVFIKKTEEFTKQPFPVDPYAQLEFAICAVFRSWMGKRAVDYRREFKITPEQADGTAVSVVSMVYGNMGNDSATGVCFTRDPGTGENMFFGEYLKNAQGEDVVAGIRTPQIISKMAEDADLPGCYEQLLDIRKKLEGYFHEVQDFEFTIERKKLYMLQTRNGKMNATATVRTGVDMVEEGLITKEQAIMRIAPQSVDQLLHKNMPANYAEAPLVKGLPASPGAATGAVVFDADDAVEQAKGKKVLLLREETKPEDIHGFFVAEGILTCRGGKTSHAAVVARGMGKPCVSGAEGIKVDVAKKIAKIGSLEVHEGDILTIDGSTGCVYKGEVPLEEPQVGSGYFGTILKWANEIKKIGVFANADLPSAAKKALEFGAEGIGLCRTERMFNAVERLPIVVKMILSNTLEERKKYLNELMPLQKQDFIGLLKTMNGLPVTVRLLDPPLHEFLPTLEELMREIFEMKLSGKTEGLAEKEVVLKKVKELMEVNPMIGHRGIRLGTTNPEIYEMQIRAFLEATAEVIKEGIKTHAEIMIPNVTEVNELINLRKNVLEPVHEEVEKKYGIKVPFMYGTMVECVRAALTADKIATEASFFSFGTNDLTQGTFSYSREDSENKFIPKYVELKILPANPFEILDRPGVGEVMRIAVTKGRQTRPELLVGICGEHGGEPSSIEWCHMIGLNYVSCSSYRIPVARIAAAQAQIRHPREN", "values": [{"measurement": "binding", "result": "binds"}]}, {"binder": "EhVps35 (protein, UniProt C4M4G0 1-746) MSKKVQQVDPVTESNQKQNNMAMYTDLMRRAMDHKNYNEALENAYKICEQMNTTNLIPAQYYNLYLVLQQCLSVLDMYLRTDYIADGNDILDLYEEVQTYQCAVARLYLMCIVGSAAVKSKKVGIVVFLKDIIEMSRAVQHPTKGIFLRNYILDCVKSILPSSTTEEPSEGNLINSIEFLLNNFSEMCRLLVRLTQGPQVTEQKVEEQQQLCQVVGKNLMIMSNLDGVSLELYSTNILPRFLEQVLLSRDKVTQDYLYDALIQAFPADYQLATLHLLLHSLGGVVANVGIRRILCSLMERISSYVSANPQIERNMDMFKIFSTHISQIVKTQTLTCEEYVSVYATLAHLVIVWHNEDDAYTQLNAINDNVYDYLTTQQNISIEAANALMSLLQFPFTKYNVLKVIQLRVYPELINLLPYTLRHETHRFVAKKVTEKNHISSTGDIMVLTIRCIETLYQDTKDMTPLNDEELAIDCNLFKTVALSSTVSTESFFDIVREVKNAVKNAGNRRSLMILPTVISMYLRAIPVITDKKDDMFKCVFDILKTLKTLSHFVALKCCVEVGSAAAQAKYSQASYFFETALTMYEDETDIPKEESLKLILSTLASCSLEDDMNEVYIIGCGKFIQLLQDSFQKGKLYCQVSSALFNEQRKVAKQSVSYLQKAVKEAGLCQVAEQNIELLIDILNIYIIHFIRDNSEITAEYINNFANVIKESISQTEIPKLQSYYKETADYIATRTEDKVKQLQL", "values": [{"measurement": "binding", "result": "binds"}]}, {"binder": "Protein disulfide isomerase (protein, UniProt C4MB38 1-368) MLLKTNQKISSVNVEHCQNTDKRELMKYKVLMKFLLFTLLTFLVSADVVSLNPTNFNTIVDGSKHVFVKFFAPWCGHCKKLAPEYIKLADAYKDKQDIVIAELDCDNKDHKDLCGKFGISGFPTLKFFRKGTTEPIEYEGGRTVEDLSHFIQEKIQPKAPSNVVSVTTATFDSIVMDPTKNVFVKFFAPWCGHCKALAPKYIEVSKMYAGEDDLVVAEVDCTANQETCNKYEVHGYPTLKSFPKGENKKPIAYEGGREVKDFVTYFNTNYGYDRDENGKLGKTAGRIAELDDLAKGFANKENKDEIIKKAEAIEGGAYYVKVMKRIIERGADYVEKEKARINKILENPSMKAKKIDDFTRNLNVLEVF", "values": [{"measurement": "binding", "result": "binds"}]}]}
